# From the supplement of paper PMC4604168 (melanoma cell lines)
# The list shows a part of the results. Many values rest on one well or one pass, so single values are uncertain.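 Imaging used 1,536-well plates; nuclei positive for cleaved PARP by antibody were divided by total DNA-stained nuclei to yield the apoptosis fraction. Doses for screening kept most cells viable, and cell lines differ markedly in resting and induced cleaved-PARP levels.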
# Legend:
# Assay in all cases: cleaved PARP positive nuclei fraction relative to DMSO control; melanoma cells; higher = more apoptosis
# Settings in all cases: library dose: low library concentration; 72 h
# [1] = system: MZ2-MEL
# [2] = system: MeWo
# [3] = system: RPMI7951
# [4] = system: RVH-421
# [5] = system: SkMel28
# [6] = system: SkMel30
# [7] = system: SkMel5
# [8] = system: UACC257
# [9] = system: UACC62
# [10] = system: WM115
# [11] = system: WM1716
# [12] = system: WM1745
# [13] = system: WM3526
# [14] = system: WM3619
# [15] = system: WM451Lu
# [16] = system: SkMel2
Structure (SMILES),cleaved PARP positive nuclei fraction [1] [%],cleaved PARP positive nuclei fraction [2] [%],cleaved PARP positive nuclei fraction [3] [%],cleaved PARP positive nuclei fraction [4] [%],cleaved PARP positive nuclei fraction [5] [%],cleaved PARP positive nuclei fraction [6] [%],cleaved PARP positive nuclei fraction [7] [%],cleaved PARP positive nuclei fraction [8] [%],cleaved PARP positive nuclei fraction [9] [%],cleaved PARP positive nuclei fraction [10] [%],cleaved PARP positive nuclei fraction [11] [%],cleaved PARP positive nuclei fraction [12] [%],cleaved PARP positive nuclei fraction [13] [%],cleaved PARP positive nuclei fraction [14] [%],cleaved PARP positive nuclei fraction [15] [%],cleaved PARP positive nuclei fraction [16] [%]
"C[C@]1(c2nc3c(C(N)=O)cccc3[nH]2)CCCN1 [Veliparib] + CC(C)CCN1c2nc(Nc3cc(F)c(O)c(F)c3)ncc2N(C)C(=O)C1C [BID1870] (first compound 1.4 µM, partner dose 0.2 µM)",120,62.8,79.2,36.1,112,60.4,18,98.9,47.3,158,101,106,67.5,82.9,121,
"C=CCn1c(=O)c2cnc(Nc3ccc(N4CCN(C)CC4)cc3)nc2n1-c1cccc(C(C)(C)O)n1 + COc1cc(N2CCC(N3CCN(C)CC3)CC2)ccc1Nc1ncc(Cl)c(Nc2ccccc2S(=O)(=O)C(C)C)n1 [NVP-TAE684] (first compound 0.02 µM, partner dose 0.08 µM)",91.2,43.2,37.3,42.9,317,110,68.7,224,212,236,68.7,121,33.7,127,50,
"Nc1cccc2c1CN(C1CCC(=O)NC1=O)C2=O (stereo not given) [lenalidomide] + Oc1nc(-c2ccc(C(F)(F)F)cc2)nc2c1CSCC2 [XAV939] (first compound 1 µM, partner dose 2 µM)",112,25.4,39.4,94.5,175,47.7,64.8,143,95.3,137,174,114,63.2,127,140,
"CC1(C)NC(=O)N(c2ccc([N+](=O)[O-])c(C(F)(F)F)c2)C1=O [nilutamide] + Cc1cc([N+](=O)[O-])ccc1NS(=O)(=O)c1cc(Cl)ccc1Cl [FH535] (first compound 1 µM, partner dose 1 µM)",61.5,27.5,67.4,90.8,147,24.4,139,27.8,124,164,183,108,85.7,124,168,
"Cc1ccc(NC(=O)c2cccc(N(C)C)c2)cc1NC(=O)c1ccc(O)cc1 + COC(=O)c1sccc1S(=O)(=O)Nc1ccc(Nc2ccccc2)cc1OC [GSK0660] (first compound 2 µM, partner dose 1 µM)",82.3,73.6,95.5,118,105,209,76.2,49.9,162,253,61.4,100,69.8,86.8,108,
"CC(C)(C)c1cnc(CSc2cnc(NC(=O)C3CCNCC3)s2)o1 + Oc1cc(-c2nc(-c3ccccc3)[nH]c2-c2ccncc2)ccc1Cl [L779450] (first compound 0.01 µM, partner dose 0.2 µM)",88.4,98.2,53,63.3,74.2,22.3,50.4,25.8,131,151,97,130,78.6,90.1,53.1,
"Cc1nc(Nc2ncc(C(=O)Nc3c(C)cccc3Cl)s2)cc(N2CCN(CCO)CC2)n1 [dasatanib] + O=c1cc(-c2cccc3c2Sc2ccccc2S3)oc(N2CCOCC2)c1 [KU55933] (first compound 0.004 µM, partner dose 1 µM)",146,38.2,63.6,83.5,78.2,602,61.2,142,92.1,119,172,134,90.4,99.2,114,
"C=CCn1c(=O)c2cnc(Nc3ccc(N4CCN(C)CC4)cc3)nc2n1-c1cccc(C(C)(C)O)n1 + OCCn1cc(-c2cnc3nnn(Cc4ccc5ncccc5c4)c3n2)cn1 [PF04217903] (first compound 0.02 µM, partner dose 1 µM)",,84.9,72.5,318,79.1,245,230,20.2,50.4,44.4,116,133,126,102,71.4,52.5
"Cc1cc(N2CCOCC2)cc2[nH]c(-c3c(NC[C@@H](O)c4cccc(Cl)c4)cc[nH]c3=O)nc12 + Cn1cc(/C=C2\C(=O)Nc3cccnc32)c2ccccc21 [GW441756] (first compound 0.2 µM, partner dose 0.4 µM)",87,110,66.6,97.1,163,131,94.9,60.2,39.6,46.2,164,128,62.7,74.7,107,
"O=C(Nc1cccc(Cl)c1)Nc1ncc(CCNc2ncnc3ccsc23)s1 + O=C(Nc1ccccc1)c1cc([N+](=O)[O-])ccc1Cl [GW9662] (first compound 0.0008 µM, partner dose 2 µM)",122,519,74.4,39.7,130,32.1,64.2,94,56.1,319,98.9,123,186,100,60.3,
"Cc1cc(N2CCOCC2)cc2[nH]c(-c3c(NC[C@@H](O)c4cccc(Cl)c4)cc[nH]c3=O)nc12 + O=C(Nc1ccccc1)c1cc([N+](=O)[O-])ccc1Cl [GW9662] (first compound 0.2 µM, partner dose 2 µM)",140,58.5,30.7,105,102,53,118,153,106,105,89.6,113,65.2,88.6,101,
"C#Cc1cccc(Nc2ncnc3cc(OCCOC)c(OCCOC)cc23)c1 [erlotinib] + CCN(CC)CCCCNc1ncc2cc(-c3cc(OC)cc(OC)c3)c(NC(=O)NC(C)(C)C)nc2n1 [PD173074] (first compound 0.8 µM, partner dose 0.1 µM)",46.2,112,251,75.1,57.7,86.1,37.7,118,73.3,143,144,136,71.7,75.2,253,
"C[C@@H]1CCN(C(=O)CC#N)C[C@@H]1N(C)c1ncnc2[nH]ccc12 + Oc1cc(-c2nc(-c3ccccc3)[nH]c2-c2ccncc2)ccc1Cl [L779450] (first compound 1 µM, partner dose 0.2 µM)",27.7,56.5,153,131,129,30.2,77.5,76,413,160,198,112,98,77.5,161,
"CC1(C)NC(=O)N(c2ccc([N+](=O)[O-])c(C(F)(F)F)c2)C1=O [nilutamide] + Oc1nc(-c2ccc(C(F)(F)F)cc2)nc2c1CSCC2 [XAV939] (first compound 1 µM, partner dose 2 µM)",90,57.1,46.8,57.2,88.5,34.9,35.9,112,69.1,74.7,196,118,134,81.9,29.9,
"COCC[n+]1c2c(n(Cc3cnccn3)c1C)C(=O)c1ccccc1C2=O + O=S(=O)(c1ccccc1)N(CC(F)(F)F)c1ccc(C(O)(C(F)(F)F)C(F)(F)F)cc1 [T0901317] (first compound 0.0004 µM, partner dose 1.4 µM)",73.9,107,40.7,110,175,97.3,115,64.6,92.6,92.1,73.4,134,66.8,76.4,144,
"CC(C)(C)c1cnc(CSc2cnc(NC(=O)C3CCNCC3)s2)o1 + Cn1cc(/C=C2\C(=O)Nc3cccnc32)c2ccccc21 [GW441756] (first compound 0.01 µM, partner dose 0.4 µM)",105,48.1,246,177,149,26,65.3,161,79,94.5,115,116,174,82.5,82.7,
"CO[C@@H]1[C@H](N(C)C(=O)c2ccccc2)C[C@H]2O[C@]1(C)n1c3ccccc3c3c4c(c5c6ccccc6n2c5c31)C(=O)NC4 [Midostaurin] + O=C(Nc1ccccc1)c1cc([N+](=O)[O-])ccc1Cl [GW9662] (first compound 0.08 µM, partner dose 2 µM)",239,28.2,38.3,108,92.3,18.7,79.4,117,40.5,75.4,211,114,154,89.8,132,
"COc1cc(Nc2ncc(F)c(Nc3ccc4c(n3)NC(=O)C(C)(C)O4)n2)cc(OC)c1OC [Tamatinib] + O=S(=O)(c1ccccc1)N(CC(F)(F)F)c1ccc(C(O)(C(F)(F)F)C(F)(F)F)cc1 [T0901317] (first compound 0.4 µM, partner dose 1.4 µM)",145,134,118,41.8,203,39.2,62.1,205,84.7,179,51.6,158,200,106,34.5,
"CC(C)(C)c1cnc(CSc2cnc(NC(=O)C3CCNCC3)s2)o1 + c1cc(-c2cnn3cc(-c4ccc(OCCN5CCCCC5)cc4)cnc23)ccn1 [Dorsomorphin] (first compound 0.01 µM, partner dose 0.4 µM)",118,50.8,63.5,99.5,129,22.4,33.8,332,94.8,157,167,133,136,75.3,165,
"CO[C@@H]1[C@H](N(C)C(=O)c2ccccc2)C[C@H]2O[C@]1(C)n1c3ccccc3c3c4c(c5c6ccccc6n2c5c31)C(=O)NC4 [Midostaurin] + COc1ccc(-c2ccc3c(N4CCOCC4)nc(N4C[C@@H](C)O[C@@H](C)C4)nc3n2)cc1CO [KU0063794] (first compound 0.08 µM, partner dose 0.02 µM)",68.7,124,91.1,194,126,26.6,58.6,306,153,78.7,103,107,71.1,131,119,

# Random excerpt: two entries already listed.
Structure (SMILES),cleaved PARP positive nuclei fraction [1] [%],cleaved PARP positive nuclei fraction [2] [%],cleaved PARP positive nuclei fraction [3] [%],cleaved PARP positive nuclei fraction [4] [%],cleaved PARP positive nuclei fraction [5] [%],cleaved PARP positive nuclei fraction [6] [%],cleaved PARP positive nuclei fraction [7] [%],cleaved PARP positive nuclei fraction [8] [%],cleaved PARP positive nuclei fraction [9] [%],cleaved PARP positive nuclei fraction [10] [%],cleaved PARP positive nuclei fraction [11] [%],cleaved PARP positive nuclei fraction [12] [%],cleaved PARP positive nuclei fraction [13] [%],cleaved PARP positive nuclei fraction [14] [%],cleaved PARP positive nuclei fraction [15] [%],cleaved PARP positive nuclei fraction [16] [%]
"C=CCn1c(=O)c2cnc(Nc3ccc(N4CCN(C)CC4)cc3)nc2n1-c1cccc(C(C)(C)O)n1 + OCCn1cc(-c2cnc3nnn(Cc4ccc5ncccc5c4)c3n2)cn1 [PF04217903] (first compound 0.02 µM, partner dose 1 µM)",,84.9,72.5,318,79.1,245,230,20.2,50.4,44.4,116,133,126,102,71.4,52.5
"Cc1ccc(NC(=O)c2cccc(N(C)C)c2)cc1NC(=O)c1ccc(O)cc1 + COC(=O)c1sccc1S(=O)(=O)Nc1ccc(Nc2ccccc2)cc1OC [GSK0660] (first compound 2 µM, partner dose 1 µM)",82.3,73.6,95.5,118,105,209,76.2,49.9,162,253,61.4,100,69.8,86.8,108,
